PMC10163288
Some of the results follow.

B1: il2ra_site1_2b5i_normal_mot_22370d59370c406a0c205a431f537cfa_0001_af2_000000027_0001_1_31_H_._HHH_b2_08220_af2_0001_0000400025_0000001_0_af2pred_dldesign_0_af2p … (protein)
chain: SSSSNKKELAKFAADLVDELADKYKLDSERANALDRLAAELVWKGYSKEEIRERLTAEALKSSSS
B2: il2ra_site2_3nfp_sap_20_mot_HHH_b1_01964_000000000_0001_19_36_H_._HHH_b2_06110_0001_0000100001_0000001_0_0001 (protein)
chain: SSSSDVVERAAEVALEVAAIAWRRNDEEVYLEVSRLFYRIQQEGDPELLEELEELLEELRSSSSS
B3: il2ra_site1_1z92_sap_16_mot_HHH_b2_06572_000000077_0001_1_17_H_._HHH_b2_02272_af2_0001_0000100011_0000001_0_0001_af2pred_0001_af2pred_1 (protein)
chain: DVEEEIERALRELGVPPEEIEAVKRDFRRALEAGIPPEQVLRVLIRAARREGNEELTEALELVLK
B4: il2ra_site2_2erj_normal_mot_HHH_b1_02968_000000142_0001_22_39_H_._HHH_b2_01127_af2_0001_0000200010_0000001_0 (protein)
chain: SSSSSDTEEEVEQILEEAREAYEKGDLERVYELAVEALRLASENRDEEAQKLVLEVAEKLSSSSS
B5: il2ra_site2_2erj_sap_21_mot_HHH_b1_02566_000000063_0001_42_58_H_._HHH_b1_01323_0001_0000100006_0000001_0_0001 (protein)
chain: SSSSSDLHELYKLAVRILALLAEGDEEEARELIEELEELAKRTDSENVKELVEFLKKKVNSSSSS
B6: il2ra_site2_2erj_normal_mot_HHH_b1_03107_000000098_0001_39_52_H_._HHH_b1_04663_0001_0001000032_0000001_0 (protein)
chain: SSSSDEEWRRIAELLAEALRLFKEGNPEEVRKILEEAHELAEEANSEELKRYVEFAHRDASSSSS
B7: il2ra_site1_3nfp_normal_mot_1cd86ef9f1587ae5d14d35bbbd8e7f1d_0001_1_000000087_0001_34_49_H_._HHH_b1_03653_af2_0001_0000200011_0000001_0 (protein)
chain: SSSSDEEAEELFKEIHERLEELLKRGDSHEAARLADEAIRELARLGDPELAQELLRRAFELSSSS
B8: il2ra_site1_2b5i_sap_13_mot_HHH_b2_06557_000000199_0001_42_56_H_._HHH_b1_06086_0001_0000100006_0000001_0_0001_af2pred_dldesign_0_af2pred (protein)
chain: SSSSSLTKEALEKFLEADRLRKAGKPEEAKRLLEEALRLAEKAKAATLAKAIRNALKDLESSSSS
B9: il2ra_site1_2b5i_sap_23_mot_4a280d29898c52388955dd985fe9baac_0001_af2_000000024_0001_35_51_H_._35d2dc24e2c4431f89e6f806b163ecf8_0001_0001_0000400035_0000001_0_0 … (protein)
chain: SFEELLARYEEKYKDDEVAIEFLNALRKLYEHTGNPELAIRSLLKLAKKAGDEKTVALAEELLEE
B10: il2ra_site1_1z92_normal_mot_HHH_b2_04965_af2_000000085_0001_3_17_H_._HHH_b1_08099_af2_0001_0000100007_0000001_0 (protein)
chain: SSSSSDFRELDRLVVELAEKFGLDHEQEHILLRVASRLLTKGVSEEEIEEILEEVAKELSSSSSS
B11: il2ra_site1_1z92_sap_13_mot_b4c6f5f17c500cb19b718c065e23fe7c_0001_1_000000266_0001_37_51_H_._a32f4d7c6847e2a44289f3a838988b97_0001_af2_0001_0000100002_0000001_0 … (protein)
chain: SSSSSSSRLELIEELLRALKEGDEELVRELLEELKRLAEETNTKSAKRMAEMVEEELGSSSSSSS
B12: il2ra_site1_1z92_normal_mot_HHH_b1_00108_af2_000000035_0001_38_51_H_._HHH_b1_06180_af2_0001_0000100008_0000001_0_af2pred_0001_af2pred (protein)
chain: SSSSSSDEFEEIDELYKQASKIKDPEERKEVLEEALELAERLGDESAQKDIRRYLRRISSSSSSS
B13: il2ra_site2_2erj_sap_16_mot_HHH_b1_00941_000000051_0001_45_58_H_._HHH_b2_03323_0001_0000600045_0000001_0_0001_af2pred_0001_1_af2pred_swapped (protein)
chain: SSSSSSSREEVEELLEEAKRIENLRRVLELLQEADKIASELDDEELLREIQKVFEELASSSSSSS
B14: il2ra_site2_2erj_normal_mot_HHH_b2_00732_af2_000000006_0001_23_40_H_._HHH_b1_01925_af2_0001_0000100002_0000001_0 (protein)
chain: SSSSDTAEENLEAIEEIVQELEENGNPEQARHYVKLAIKMARRAGDEEVVEELEKLLEELESSSS
B15: il2ra_site1_1z92_sap_15_mot_HHH_b1_08504_af2_000000168_0001_42_54_H_._HHH_b1_07766_0001_0000200005_0000001_1_0001_af2pred_0001_af2pred (protein)
chain: SSSSSSSEEVERVDELFREASHVSREEARKLLEEALEIAEEANDEREQKEIRHLLKAFSSSSSSS
B16: il2ra_site2_3nfp_sap_16_mot_HHH_b2_07129_000000128_0001_19_36_H_._HHH_b2_06957_af2_0001_0000400016_0000001_0_0001 (protein)
chain: SSSSDHEEEYLEAALELLKEAVKEGDEEAAREHTETARQAAEHARDEEILEALEELIEELESSSS
B17: il2ra_site1_2b5i_normal_mot_22370d59370c406a0c205a431f537cfa_0001_af2_000000141_0001_1_31_H_._HHH_b1_04252_af2_0001_0000200010_0000001_0_af2pred_dldesign_0_af2p … (protein)
chain: SSSSKELEARAAALVERLAEEYKLTLEQEKELERLAVELIYKGLSLEEIEEKLRELAEKLGSSSS
B18: il2ra_site1_2b5i_sap_18_mot_HHH_b1_06900_af2_000000048_0001_21_36_H_._HHH_b2_04242_0001_0000100001_0000001_0_0001_af2pred_dldesign_0_af2pred (protein)
chain: SSSSSLAKEALELFLEADKLFQAGKEEEAKKKLEEALELAKKAGNKSLVKAIESALEDLESSSSS
B19: il2ra_site1_2b5i_normal_mot_HHH_b1_02271_000000068_0001_1_16_H_._HHH_b1_04984_af2_0001_0000200014_0000001_0_af2pred_dldesign_0_af2pred (protein)
chain: SSSSSDVEAEVEELIRRARELAAAGKRREALELLEEAAKLLDAADMEELLDEVEALAKELSSSSS

Target: il2ra, P01589
Experiment: yeast display titration

Apparent Kd, inactive:
B1 no binding seen
B2 > 940 nM
B3 no binding seen
B4 no binding seen
B5 no binding seen
B6 no binding seen
B7 no binding seen
B8 no binding seen
B9 no binding seen
B10 no binding seen
B11 no binding seen
B12 no binding seen
B13 no binding seen
B14 no binding seen
B15 no binding seen
B16 no binding seen
B17 no binding seen
B18 no binding seen
B19 no binding seen

No new results follow: an excerpt of the list.
Apparent Kd, inactive:
B9 no binding seen
B10 no binding seen
B11 no binding seen
B12 no binding seen
